Experimental data published in PubChem BioAssay AID1757 (Vanderbilt High Throughput Screening Facility, 2009).
Some of the results follow. Measured potencies and affinities stand elsewhere. The source made no clear call on entries shown without one.

By UniProt entry, the sequences of proteins in these tests, tags left out.
UniProt P08485, whole entry, looked up: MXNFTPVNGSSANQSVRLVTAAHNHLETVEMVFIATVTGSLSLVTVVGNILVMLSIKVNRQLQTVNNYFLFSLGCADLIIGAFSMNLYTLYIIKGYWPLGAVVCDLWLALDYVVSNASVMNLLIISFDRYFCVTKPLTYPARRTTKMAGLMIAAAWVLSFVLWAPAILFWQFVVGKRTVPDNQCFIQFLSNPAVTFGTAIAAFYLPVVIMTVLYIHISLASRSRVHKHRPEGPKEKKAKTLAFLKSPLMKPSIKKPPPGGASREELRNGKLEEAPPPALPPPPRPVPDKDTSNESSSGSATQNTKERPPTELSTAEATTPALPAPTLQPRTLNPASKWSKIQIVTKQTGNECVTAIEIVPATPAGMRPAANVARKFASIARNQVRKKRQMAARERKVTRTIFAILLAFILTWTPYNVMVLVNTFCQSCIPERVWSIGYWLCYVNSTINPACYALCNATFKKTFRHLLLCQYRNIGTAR

Target: Muscarinic acetylcholine receptor M4 (Rattus norvegicus) (UniProt P08485)
Assay: PubChem AID 1757
Settings: rat M4 membranes, [3H]NMS radioligand competition binding; at 30 µM (top of the series)

## CCOC(=O)N1CCC(NCCNC(=O)c2cccs2)CC1
  specific [3H]NMS binding: 89.9
